At least one compound was matched to its structure with a doubt left.
System: rat-liver mitochondria
Test: inhibition of glutamate oxidation in mitochondria (ionophorous agent)
Format: biochemical

CC1CCCCCCCCCC(OC(=O)CCC(=O)O)C(=O)/C=C/C(=O)O1 (centres unmarked) [Factor B, mono(16-methyl-2,5-dioxooxacyclohexadec-3-en-6-yl) succinate]
ionophorous action: ionophorous agent | inhibition of glutamate oxidation (rat-liver mitochondria): inhibits glutamate oxidation in rat-liver mitochondria

From patent publication US3954972A, “Antibiotic A-26771 factor” (Eli Lilly and Company, priority 1975, dated 1976)
